{"source": "patent US9051349B2", "about": "(Alba Therapeutics Corp., priority 2007, dated 2015)", "test": "general procedure: solution-phase peptide synthesis", "details": "coupling step, HCl salt"}
{"substance": "HCl.H-Gly-Gly-Val-Leu-Val-Gln-Pro-Gly-OH", "values": [{"measurement": "step yield", "value": 80, "unit": "%"}]}
